Values quoted from earlier work in US20160243040A1, “Pharmaceutical Composition with Antiinflammatory Agents and Production Process” (LABORATORIO RAAM DE SAHUAYO, S.A. DE C.V., priority 2013, published 2016).
For at least one compound, name, drawing or mass did not settle the structure.

Legend:
[1] = relative potency, cortisol = 1
[2] = relative potency, cortisol = 1; remark: listed apart in the source

For `C[C@]12CCC(=O)C=C1CC[C@H]1[C@@H]3CC[C@](O)(C(=O)CO)[C@@]3(C)C[C@H](O)[C@@]12F` [Fludrocortisone], the “Potency to retain Na+” value [1] is given as 125 and the Anti-inflammatory potency [2] is given as 10.
